Measurements reported in PMC8389370, “pUL21 is a viral phosphatase adaptor that promotes herpes simplex virus replication and spread” (PLoS Pathogens, 2021).
Where two headings read alike, the source gives them in different places. These are yes or no findings as the source states them, for the method shown. For some of these results: Binding seen in cells or lysates may run through a third protein. Some entries that bind do so weakly or less than the wild type.

Sequences of proteins named here, by UniProt entry; tags and fusion partners are left off.
UniProt F8RG07: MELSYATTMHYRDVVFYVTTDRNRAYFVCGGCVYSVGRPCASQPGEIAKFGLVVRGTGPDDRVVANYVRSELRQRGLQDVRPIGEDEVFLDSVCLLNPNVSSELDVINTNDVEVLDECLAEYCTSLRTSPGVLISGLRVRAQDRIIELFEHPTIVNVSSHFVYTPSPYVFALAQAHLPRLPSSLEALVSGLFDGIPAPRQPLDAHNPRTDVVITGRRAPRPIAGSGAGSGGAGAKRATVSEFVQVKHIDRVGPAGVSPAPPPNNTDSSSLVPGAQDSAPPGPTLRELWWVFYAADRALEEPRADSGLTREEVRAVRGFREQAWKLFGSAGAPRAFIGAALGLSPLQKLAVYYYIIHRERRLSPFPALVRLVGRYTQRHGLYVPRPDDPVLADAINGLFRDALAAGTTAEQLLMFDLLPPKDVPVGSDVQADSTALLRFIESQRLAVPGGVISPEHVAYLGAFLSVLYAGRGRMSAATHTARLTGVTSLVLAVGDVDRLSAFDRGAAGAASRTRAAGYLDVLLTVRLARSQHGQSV
UniProt P62136: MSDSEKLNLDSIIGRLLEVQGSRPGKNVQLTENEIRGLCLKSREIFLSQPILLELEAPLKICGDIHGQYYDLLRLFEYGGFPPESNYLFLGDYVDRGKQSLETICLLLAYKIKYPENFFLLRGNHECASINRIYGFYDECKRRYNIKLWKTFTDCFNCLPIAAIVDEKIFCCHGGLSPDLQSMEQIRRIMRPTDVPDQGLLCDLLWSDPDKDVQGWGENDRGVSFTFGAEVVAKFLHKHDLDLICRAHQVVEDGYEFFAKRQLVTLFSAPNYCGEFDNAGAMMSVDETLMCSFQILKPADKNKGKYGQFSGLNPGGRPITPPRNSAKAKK
UniProt P62140: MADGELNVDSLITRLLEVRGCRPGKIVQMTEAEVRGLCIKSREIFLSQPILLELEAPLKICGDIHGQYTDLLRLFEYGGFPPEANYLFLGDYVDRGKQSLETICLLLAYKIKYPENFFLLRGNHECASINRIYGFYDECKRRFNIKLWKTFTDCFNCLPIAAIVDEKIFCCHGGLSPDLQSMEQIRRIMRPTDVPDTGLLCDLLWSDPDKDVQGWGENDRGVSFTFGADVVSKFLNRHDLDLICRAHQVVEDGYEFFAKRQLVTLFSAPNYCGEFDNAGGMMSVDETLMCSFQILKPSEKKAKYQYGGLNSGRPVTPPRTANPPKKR

B1: ceramide-transport protein CERT, endogenous (protein, UniProt Q9Y5P4 1-624)
chain: MSDNQSWNSSGSEEDPETESGPPVERCGVLSKWTNYIHGWQDRWVVLKNNALSYYKSEDETEYGCRGSICLSKAVITPHDFDECRFDISVNDSVWYLRAQDPDHRQQWIDAIEQHKTESGYGSESSLRRHGSMVSLVSGASGYSATSTSSFKKGHSLREKLAEMETFRDILCRQVDTLQKYFDACADAVSKDELQRDKVVEDDEDDFPTTRSDGDFLHSTNGNKEKLFPHVTPKGINGIDFKGEAITFKATTAGILATLSHCIELMVKREDSWQKRLDKETEKKRRTEEAYKNAMTELKKKSHFGGPDYEEGPNSLINEEEFFDAVEAALDRQDKIEEQSQSEKVRLHWPTSLPSGDAFSSVGTHRFVQKPYSRSSSMSSIDLVSASDDVHRFSSQVEEMVQNHMTYSLQDVGGDANWQLVVEEGEMKVYRREVEENGIVLDPLKATHAVKGVTGHEVCNYFWNVDVRNDWETTIENFHVVETLADNAIIIYQTHKRVWPASQRDVLYLSVIRKIPALTENDPETWIVCNFSVDHDSAPLNNRCVRAKINVAMICQTLVSPPEGNQEISRDNILCKITYVANVNPGGWAPASVLRAVAKREYPKFLKRFTSYVQEKTAGKPILF

What was measured:
[1] = target: C-terminally GFP-tagged pUL21 (pUL21-GFP), wild type (HSV-1 strain KOS) (UniProt F8RG07); assay: co-IP; HEK293T cells transfected with GFP-tagged bait, lysed 24 h post-transfection, captured on GFP affinity resin (GFP-TRAP), SDS-PAGE and immunoblot of endogenous partners
[2] = target: full-length C-terminally hexahistidine-tagged pUL21 (pUL21-H6) (HSV-1 strain KOS) (UniProt F8RG07); assay: SEC-MALS; 100 μL of 1 mg/mL UL21-H6 on Superdex 200 10/300, 20 mM Tris pH 7.5, 200 mM NaCl, 1 mM DTT, room temperature; both purified
[3] = target: C-terminally GFP-tagged pUL21 (pUL21-GFP), wild type (HSV-1 strain KOS) (UniProt F8RG07); assay: co-IP; HEK293T cells transfected with GFP-tagged bait, lysed 24 h post-transfection, captured on GFP affinity resin (GFP-TRAP), SDS-PAGE and immunoblot of endogenous partners; remark: listed apart in the source

Row | Molecule | binding [1] | further results
1 | PP1 catalytic subunit isoform α (from UniProt P62136 1-330) (enzyme) | binds | 
2 | PP1 catalytic subunit isoform β (from UniProt P62140 1-327) (enzyme) | binds | 
3 | full-length C-terminally hexahistidine-tagged pUL21 (pUL21-H6) (from UniProt F8RG07 1-535) |  | binding [2]: no binding (tested: 1 mg/mL injected)
4 | B1 |  | binding [3]: binds
